Values from PubChem BioAssay AID504791 (Drosophila RNAi Screening Center, 2011)

Purpose: 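Genes whose knock-down strengthens or weakens small-RNA reporter silencing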 (primary screen)
Cell system: Drosophila S2-derived reporter cells
Reagents: long dsRNA against Drosophila genes, about 150-250 ng dsRNA per well (siRNA assay); about 80-120 ng (miRNA assay)
Duration: about 5 days (siRNA assay); about 4 days (miRNA assay)
Conditions: copper sulfate induction of reporters: 25 µM (siRNA assay); 200 mM stated (miRNA assay), 1-2 days before reading
Measured: 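Per-well ratio of Renilla over firefly light, expressed relative to that plate's average ratio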
Scale: siRNA reporter hit score: higher = 3 marks a strong hit with raised ratio; -3 a strong hit with lowered ratio
Call rule: 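First-pass picks had plate-scaled ratios over 1.5 for the siRNA assay, over 1.6 for the miRNA assay, or under 0.6; two distinct dsRNAs had to score alike on retest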
In all, the deposit lists about 23,000 reagents; below is a random part of those that have a named target and a result. Of all reagents, 199 (0.86%) are marked active. 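Plate-scaled ratios behind the calls are not deposited; printed light signals are raw; many rows marked increased or decreased are still called inactive.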 Names joined by + are all predicted targets of the reagent. No sequences are given here.

predicted target | amplicon | siRNA reporter hit score | stable siRNA reporter change | miRNA reporter change | stable assay Renilla, run 1 (luminescence) | stable assay firefly, run 1 (luminescence) | activity call
Sin1 (SAPK-interacting protein 1) | DRSC05965 | – | – | – | 7995 | 4.23e5 | inactive
Eip74EF (Ecdysone-induced protein 74EF) | DRSC10613 | – | – | – | 6143 | 2.25e5 | inactive
Eip74EF (Ecdysone-induced protein 74EF) | DRSC11160 | – | – | – | 5959 | 2.47e5 | inactive
TotF (Turandot F) | DRSC02305 | – | – | – | 7523 | 5.47e5 | inactive
Tgi (Tondu-domain-containing Growth Inhibitor) | DRSC09793 | – | – | – | 5460 | 3.21e5 | inactive
Tgi (Tondu-domain-containing Growth Inhibitor) | DRSC09794 | – | – | – | 5955 | 3.36e5 | inactive
dila (dilatory) | DRSC06607 | – | – | – | 6040 | 4.93e5 | inactive
CG32069 + Blos2 | DRSC10621 | – | – | – | 7339 | 3.89e5 | inactive
Acp98AB (retired record) | DRSC21837 | – | – | – | 8765 | 8.50e5 | inactive
CG33775 | DRSC05353 | – | – | – | 5818 | 3.56e5 | inactive
Acf (ATP-dependent chromatin assembly factor large subunit) | DRSC14101 | – | – | – | 7363 | 4.05e5 | inactive
SerT (Serotonin transporter) | DRSC04655 | – | – | – | 6487 | 3.74e5 | inactive
CG15312 | DRSC18000 | – | – | – | 6366 | 2.92e5 | inactive
CG42399 | DRSC00322 | – | – | – | 7979 | 5.41e5 | inactive
CG42399 | DRSC00661 | – | – | – | 7484 | 4.30e5 | inactive
Ehbp1 (Eps15 homology domain containing protein-binding protein 1) | DRSC06561 | – | – | – | 11618 | 3.59e5 | inactive
CG14075 | DRSC10080 | – | – | – | 6763 | 4.33e5 | inactive
bb8 (big bubble 8) | DRSC15578 | – | – | – | 7010 | 3.42e5 | inactive
CG42541 | DRSC17973 | – | – | – | 5840 | 3.02e5 | inactive
CG42541 | DRSC18119 | – | – | reporter ratio raised past the hit cutoff | 5143 | 1.91e5 | inactive
CG42541 | DRSC18120 | – | – | – | 5296 | 3.69e5 | inactive
pad (poils au dos) | DRSC14227 | – | reporter ratio lowered past the hit cutoff | – | 7291 | 7.97e5 | inactive
Sf3b2 (Splicing factor 3b subunit 2) | DRSC00619 | – | – | reporter ratio lowered past the hit cutoff | 9727 | 9.06e5 | active
velo (veloren) | DRSC08841 | – | – | – | 2759 | 1.67e5 | inactive
velo (veloren) | DRSC09698 | – | – | – | 5259 | 3.23e5 | inactive

Entries above called active (1):
predicted target | amplicon | siRNA reporter hit score | stable siRNA reporter change | miRNA reporter change | stable assay Renilla, run 1 (luminescence) | stable assay firefly, run 1 (luminescence) | activity call
Sf3b2 (Splicing factor 3b subunit 2) | DRSC00619 | – | – | reporter ratio lowered past the hit cutoff | 9727 | 9.06e5 | active

Further results:
predicted target | amplicon | siRNA reporter hit score | stable siRNA reporter change | miRNA reporter change | stable assay Renilla, run 1 (luminescence) | stable assay firefly, run 1 (luminescence) | activity call
CG10841 | DRSC14271 | – | – | – | 7702 | 5.22e5 | inactive
Nil (Nilkantha) | DRSC15953 | – | – | – | 8502 | 3.79e5 | inactive
Nil (Nilkantha) | DRSC23322 | – | – | – | 5383 | 3.68e5 | inactive
CG15083 | DRSC06514 | – | – | – | 6207 | 3.97e5 | inactive
robo3 (roundabout 3) | DRSC00374 | – | – | – | 9256 | 4.21e5 | inactive
robo3 (roundabout 3) | DRSC00375 | – | – | – | 7920 | 3.42e5 | inactive
robo3 (roundabout 3) | DRSC00684 | – | – | – | 7575 | 4.82e5 | inactive
Pp1alpha-96A (Protein phosphatase 1alpha at 96A) | DRSC16795 | – | – | – | 8295 | 3.69e5 | inactive
Pp1alpha-96A (Protein phosphatase 1alpha at 96A) | DRSC23320 | – | – | – | 4436 | 3.29e5 | inactive
CG31709 | DRSC01081 | – | – | – | 4874 | 3.92e5 | inactive
Tsp96F (Tetraspanin 96F) | DRSC14147 | – | – | – | 8330 | 4.16e5 | inactive
Menl-2 + Menl-1 | DRSC07469 | – | – | – | 6370 | 3.73e5 | inactive
Menl-2 + Menl-1 | DRSC07470 | – | – | – | 6891 | 3.41e5 | inactive
CG2157 | DRSC19836 | – | – | – | 4812 | 3.83e5 | inactive
Orc2 (Origin recognition complex subunit 2) | DRSC16776 | – | – | – | 7970 | 4.31e5 | inactive
Ppt2 (Palmitoyl-protein Thioesterase 2) | DRSC02786 | – | – | – | 21553 | 1.18e6 | inactive
Ppt2 (Palmitoyl-protein Thioesterase 2) | DRSC26027 | – | – | reporter ratio raised past the hit cutoff | – | – | inactive
CG5892 | DRSC15910 | – | – | – | 8010 | 4.83e5 | inactive
CG16721 | DRSC18113 | – | – | – | 10079 | 7.99e5 | inactive
CG32110 | DRSC09220 | – | – | – | 5420 | 4.14e5 | inactive
CG11168 | DRSC14292 | – | – | – | 8611 | 3.06e5 | inactive
7SLRNA:CR42652 + 7SLRNA:CR32864 | DRSC22968 | – | – | – | 4532 | 3.68e5 | inactive
E(spl)m8-HLH (Enhancer of split m8, helix-loop-helix) | DRSC16654 | – | – | – | 7207 | 3.67e5 | inactive
NSD (Nuclear receptor binding SET domain protein) | DRSC15691 | – | – | – | 6572 | 4.16e5 | inactive
Rel (Relish) | DRSC16819 | – | – | – | 9092 | 4.65e5 | inactive
Rsph4a (Radial spoke head protein 4a) | DRSC04338 | – | – | – | 8746 | 1.67e6 | inactive
CG42788 | DRSC15330 | – | – | – | 7757 | 3.21e5 | inactive
CG42788 | DRSC16139 | – | – | – | 8855 | 4.23e5 | inactive
CG42788 | DRSC16152 | – | – | – | 6947 | 3.90e5 | inactive
TBC1D5 (TBC1 domain family member 5) | DRSC16421 | – | – | – | 8888 | 6.06e5 | inactive
Cdk12 (Cyclin-dependent kinase 12) | DRSC11836 | -3 | – | – | 5743 | 2.83e5 | inactive
Cdk12 (Cyclin-dependent kinase 12) | DRSC23323 | – | reporter ratio raised past the hit cutoff | – | 4379 | 99571 | active
Cdk12 (Cyclin-dependent kinase 12) | DRSC29623 | – | – | reporter ratio raised past the hit cutoff | – | – | active
